Measurements reported in PMC5746549.
These are yes or no findings as the source states them, for the method shown. For some assays here: Binding seen in cells or lysates may run through a third protein. For some assays here: Binding can be weak; no strength is given. For some assays here: Where a sequence is shown, tags or fusion partners need not be part of it. Blank lines part the entries; values can stand above or below the molecule they belong to.

By UniProt entry, the sequences of proteins in these tests, tags left out. Where a name states a change or a piece, a line headed by the entry shows the natural chain unless it says otherwise.
UniProt P10288: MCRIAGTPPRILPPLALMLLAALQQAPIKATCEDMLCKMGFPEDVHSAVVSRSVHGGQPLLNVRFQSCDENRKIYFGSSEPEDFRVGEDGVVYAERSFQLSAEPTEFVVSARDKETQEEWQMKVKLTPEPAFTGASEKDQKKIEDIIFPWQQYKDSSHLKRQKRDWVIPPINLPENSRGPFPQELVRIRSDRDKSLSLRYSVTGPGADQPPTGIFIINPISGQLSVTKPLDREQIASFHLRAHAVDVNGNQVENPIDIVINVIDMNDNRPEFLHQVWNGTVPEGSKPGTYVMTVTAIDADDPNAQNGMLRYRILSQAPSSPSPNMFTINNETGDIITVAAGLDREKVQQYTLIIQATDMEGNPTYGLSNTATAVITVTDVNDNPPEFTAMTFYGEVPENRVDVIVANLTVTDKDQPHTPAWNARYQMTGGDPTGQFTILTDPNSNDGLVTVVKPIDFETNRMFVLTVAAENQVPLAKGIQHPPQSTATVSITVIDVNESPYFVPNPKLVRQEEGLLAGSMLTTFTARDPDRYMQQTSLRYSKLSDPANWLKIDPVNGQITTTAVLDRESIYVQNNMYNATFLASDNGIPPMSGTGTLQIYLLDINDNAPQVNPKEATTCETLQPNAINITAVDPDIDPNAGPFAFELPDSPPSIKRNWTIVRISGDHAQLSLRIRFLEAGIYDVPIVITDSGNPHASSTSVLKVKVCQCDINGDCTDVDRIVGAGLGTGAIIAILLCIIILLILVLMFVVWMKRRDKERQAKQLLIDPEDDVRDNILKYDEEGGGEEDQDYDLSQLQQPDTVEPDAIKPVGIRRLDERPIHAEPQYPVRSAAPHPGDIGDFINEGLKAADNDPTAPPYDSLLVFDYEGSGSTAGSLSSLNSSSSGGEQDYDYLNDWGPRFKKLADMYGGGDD
UniProt Q9IA31: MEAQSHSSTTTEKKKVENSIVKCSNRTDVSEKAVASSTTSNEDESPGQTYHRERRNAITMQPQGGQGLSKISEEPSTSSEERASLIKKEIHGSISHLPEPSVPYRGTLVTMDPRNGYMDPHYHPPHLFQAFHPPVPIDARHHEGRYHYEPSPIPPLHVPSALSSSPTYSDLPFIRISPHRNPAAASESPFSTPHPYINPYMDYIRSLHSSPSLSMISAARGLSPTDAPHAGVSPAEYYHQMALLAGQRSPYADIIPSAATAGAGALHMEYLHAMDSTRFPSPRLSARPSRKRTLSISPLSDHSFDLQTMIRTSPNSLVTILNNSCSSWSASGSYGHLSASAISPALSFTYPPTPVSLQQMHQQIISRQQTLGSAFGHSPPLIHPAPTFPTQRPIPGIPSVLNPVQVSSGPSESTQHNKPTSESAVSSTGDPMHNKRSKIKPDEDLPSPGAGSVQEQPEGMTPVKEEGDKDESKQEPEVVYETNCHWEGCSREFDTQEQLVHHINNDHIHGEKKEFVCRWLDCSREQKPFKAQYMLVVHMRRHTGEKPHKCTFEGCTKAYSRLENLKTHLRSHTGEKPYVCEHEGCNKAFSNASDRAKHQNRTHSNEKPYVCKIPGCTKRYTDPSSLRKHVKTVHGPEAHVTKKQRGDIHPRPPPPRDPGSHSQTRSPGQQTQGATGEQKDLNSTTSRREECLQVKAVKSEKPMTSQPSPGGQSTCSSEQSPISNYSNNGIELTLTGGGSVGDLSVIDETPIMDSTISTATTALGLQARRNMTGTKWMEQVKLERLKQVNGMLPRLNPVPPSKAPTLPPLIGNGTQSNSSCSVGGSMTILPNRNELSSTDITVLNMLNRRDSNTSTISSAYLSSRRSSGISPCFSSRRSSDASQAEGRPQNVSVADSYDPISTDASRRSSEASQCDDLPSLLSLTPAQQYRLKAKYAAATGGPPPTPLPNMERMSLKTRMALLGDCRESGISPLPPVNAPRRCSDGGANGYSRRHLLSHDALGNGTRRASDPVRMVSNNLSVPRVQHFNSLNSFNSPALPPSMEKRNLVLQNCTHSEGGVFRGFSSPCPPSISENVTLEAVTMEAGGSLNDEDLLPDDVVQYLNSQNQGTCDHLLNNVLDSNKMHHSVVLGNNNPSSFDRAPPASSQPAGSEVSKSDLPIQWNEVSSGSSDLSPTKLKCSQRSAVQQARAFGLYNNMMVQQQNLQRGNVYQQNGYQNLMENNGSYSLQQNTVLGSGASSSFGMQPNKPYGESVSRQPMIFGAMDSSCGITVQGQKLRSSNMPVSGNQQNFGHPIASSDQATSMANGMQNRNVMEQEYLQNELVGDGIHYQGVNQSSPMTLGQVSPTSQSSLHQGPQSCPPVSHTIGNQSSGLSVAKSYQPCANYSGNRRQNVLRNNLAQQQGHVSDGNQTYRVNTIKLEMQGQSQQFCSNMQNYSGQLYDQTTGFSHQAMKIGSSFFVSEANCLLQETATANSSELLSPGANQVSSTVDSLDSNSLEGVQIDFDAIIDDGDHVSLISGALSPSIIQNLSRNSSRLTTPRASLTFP
UniProt Q62226: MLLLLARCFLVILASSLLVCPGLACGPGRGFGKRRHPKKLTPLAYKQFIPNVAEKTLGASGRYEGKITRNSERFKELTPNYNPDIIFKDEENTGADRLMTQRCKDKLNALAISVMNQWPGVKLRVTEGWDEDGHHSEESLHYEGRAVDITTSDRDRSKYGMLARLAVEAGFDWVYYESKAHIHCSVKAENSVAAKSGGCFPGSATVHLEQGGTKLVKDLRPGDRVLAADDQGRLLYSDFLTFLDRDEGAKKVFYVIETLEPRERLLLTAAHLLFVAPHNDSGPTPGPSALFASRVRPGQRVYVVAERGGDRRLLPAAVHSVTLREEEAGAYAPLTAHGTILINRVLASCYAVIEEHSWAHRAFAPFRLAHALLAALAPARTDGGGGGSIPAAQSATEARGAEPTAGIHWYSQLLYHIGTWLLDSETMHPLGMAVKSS

Assays:
[1] = biological target: T1, chick Cdh7 (cadherin-7), transiently expressed in NIH3T3 cells (chick) (UniProt Q90763); experiment: co-IP; lysates of NIH3T3 cells transiently expressing chick Cdh7, Ncdh or Myc-tagged Cdh20 incubated with rN-Shh; immunoprecipitation with anti-Cdh7, anti-Ncdh or anti-Myc mAb; blot with anti-Shh pAb; only the binder purified
T1 sequence: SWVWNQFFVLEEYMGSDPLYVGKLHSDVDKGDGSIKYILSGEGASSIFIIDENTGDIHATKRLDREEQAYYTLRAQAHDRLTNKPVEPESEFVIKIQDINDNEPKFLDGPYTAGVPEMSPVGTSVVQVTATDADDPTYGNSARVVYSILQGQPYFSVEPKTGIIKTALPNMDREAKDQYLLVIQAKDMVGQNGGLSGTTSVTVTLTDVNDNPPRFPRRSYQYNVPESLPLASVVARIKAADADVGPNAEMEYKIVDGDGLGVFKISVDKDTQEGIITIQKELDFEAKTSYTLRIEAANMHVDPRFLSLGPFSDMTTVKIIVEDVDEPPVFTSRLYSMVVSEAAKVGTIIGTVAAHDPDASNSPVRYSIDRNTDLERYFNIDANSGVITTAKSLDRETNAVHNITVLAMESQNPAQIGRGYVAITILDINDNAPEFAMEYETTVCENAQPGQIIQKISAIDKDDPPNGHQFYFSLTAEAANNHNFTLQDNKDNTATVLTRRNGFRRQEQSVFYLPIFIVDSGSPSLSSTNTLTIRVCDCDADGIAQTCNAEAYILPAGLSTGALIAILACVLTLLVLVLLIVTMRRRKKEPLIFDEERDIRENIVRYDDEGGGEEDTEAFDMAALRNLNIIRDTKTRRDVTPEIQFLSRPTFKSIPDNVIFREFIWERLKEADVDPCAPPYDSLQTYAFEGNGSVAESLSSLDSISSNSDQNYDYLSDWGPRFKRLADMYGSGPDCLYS

[2] = biological target: T2, Myc-tagged chick Cdh20 (cadherin-20), transiently expressed in NIH3T3 cells (chick) (UniProt Q8QGH3); experiment: as above
T2 sequence: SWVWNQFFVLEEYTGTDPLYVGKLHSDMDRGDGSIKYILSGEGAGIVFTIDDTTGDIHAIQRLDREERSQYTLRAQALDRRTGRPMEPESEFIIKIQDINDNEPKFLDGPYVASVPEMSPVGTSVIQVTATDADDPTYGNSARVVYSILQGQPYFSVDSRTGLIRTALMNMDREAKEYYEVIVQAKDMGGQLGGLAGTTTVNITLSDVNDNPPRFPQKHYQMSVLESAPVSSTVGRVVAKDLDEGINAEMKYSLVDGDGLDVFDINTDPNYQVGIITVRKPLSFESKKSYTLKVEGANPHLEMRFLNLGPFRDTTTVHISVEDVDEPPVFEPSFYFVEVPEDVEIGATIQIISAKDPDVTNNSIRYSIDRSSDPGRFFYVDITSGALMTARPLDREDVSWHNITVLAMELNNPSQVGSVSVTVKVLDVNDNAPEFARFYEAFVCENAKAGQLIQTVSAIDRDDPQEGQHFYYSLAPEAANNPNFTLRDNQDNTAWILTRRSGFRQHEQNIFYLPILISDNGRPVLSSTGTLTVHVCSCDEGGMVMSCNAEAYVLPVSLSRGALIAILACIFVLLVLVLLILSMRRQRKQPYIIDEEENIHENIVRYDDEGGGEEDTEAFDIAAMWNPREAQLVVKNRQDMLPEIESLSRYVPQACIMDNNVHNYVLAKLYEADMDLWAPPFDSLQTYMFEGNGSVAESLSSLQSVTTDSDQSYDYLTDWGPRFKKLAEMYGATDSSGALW

[3] = biological target: T3, endogenous Cdh7 of chick embryonic spinal cord (chick (endogenous in HH st. 17 chick embryo)) (UniProt Q90763); experiment: co-IP; endogenous proteins in HH st. 17 chick embryo spinal cord lysates; immunoprecipitation with anti-Shh, anti-Cdh7 or anti-Ncdh mAbs
T3 sequence: T1 sequence

[4] = biological target: endogenous Ncdh of chick embryonic spinal cord (chick (endogenous in HH st. 17 chick embryo)) (UniProt P10288); experiment: as above
[5] = biological target: Ncdh tested for binding of AP-tagged N-Shh (chick) (UniProt P10288); experiment: binding of AP-tagged ligand to cells (AP staining, saturation binding, Scatchard analysis); COS-7 cells expressing Cdh7 treated with conditioned medium from 293 cells expressing N-Shh-AP
recombinant N-Shh [6] = experiment: co-IP; lysates of NIH3T3 cells transiently expressing chick Cdh7 incubated with rN-Shh; immunoprecipitation with anti-Shh mAb; blot with anti-Cdh7 mAb; only the target purified
recombinant N-Shh [7] = experiment: co-IP; lysates of COS-7 cells transiently expressing Myc-tagged Cdh7 constructs incubated with rN-Shh; pull-down with anti-Shh mAb; blot with anti-Myc pAb; only the target purified
[8] = biological target: endogenous N-Shh of chick embryonic spinal cord (chick (endogenous in HH st. 17 chick embryo)); experiment: co-IP; endogenous proteins in HH st. 17 chick embryo spinal cord lysates; immunoprecipitation with anti-Shh, anti-Cdh7 or anti-Ncdh mAbs

binding [1]: binds
binding [2]: no binding
Molecule: recombinant N-Shh (ligand)

binding [3]: binds
Molecule: endogenous N-Shh of chick embryonic spinal cord (ligand)

binding [4]: no binding
Molecule: endogenous Gli3FL of chick embryonic spinal cord (from UniProt Q9IA31 1-1544)

binding [5]: no binding
Molecule: N-Shh tagged with alkaline phosphatase (from UniProt Q62226) (ligand)

binding (recombinant N-Shh [6]): binds
B1: chick Cdh7 (cadherin-7), transiently expressed in NIH3T3 cells (receptor, UniProt Q90763 48-785)
chain: T1 sequence

binding (recombinant N-Shh [7]): binds
B2: Myc-tagged Cdh7 full-length, transiently expressed in COS-7 cells (receptor, UniProt Q90763 48-785)
chain: T1 sequence

binding [8]: binds
B3: endogenous Cdh7 of chick embryonic spinal cord (receptor, UniProt Q90763 48-785)
chain: T1 sequence
